# Measured values: the supplement of paper PMC8104966
# Where “and” joins values, the source holds several entries; their conditions need not be identical. Identical values can stand only once. Some of the results follow. Repeats in this data set agree poorly, so a single value says little.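 Fusion between ACE2-bearing and full-length-spike-bearing U2OS cells was measured by imaging as the percentage of nuclei with both cell types' fluorescent markers. An inhibitory hit is a non-toxic compound whose fusion z-score is below -3, more than three standard deviations beneath the plate's DMSO wells.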
# Tested on: U2OS ACE2 x SARS-CoV-2 spike co-culture
# Experiment: cell-cell fusion (fraction fused) z-score vs plate DMSO control; higher = more fusion
# Settings: 30 µM; 5 h; toxicity class: non-toxic, passed QC
row,SMILES,cell-cell fusion (z-score)
1,CC(=O)OCC(=O)[C@@]12OC(C)(C)O[C@@H]1CC1C3C[C@H](F)C4=CC(=O)C=C[C@]4(C)[C@@]3(F)[C@@H](O)C[C@@]12C (some centres undefined),inactive: -0.139
2,O=c1[nH]c(=O)c2ccccc2o1,inactive: 1.13
3,COc1cccc(-c2cc(=O)c3ccc(OC)cc3o2)c1,inactive: 4.1
4,FC(F)(F)COCC(F)(F)F,inactive: 1.8
5,CCC(Cc1c(I)cc(I)c(N)c1I)C(=O)O (centres undefined),inactive: 2.94
6,COC(=O)/C(=C1\OC(=O)C(c2ccccc2)=C1O)c1ccccc1,inactive: 1.43
7,CC(=O)NCC(=O)O.CC(=O)NCC(=O)O.N=C(N)c1ccc(/N=N/Nc2ccc(C(=N)N)cc2)cc1,inactive: 2.13
8,CC[C@@H]1C(=O)OC[C@@H]1Cc1cncn1C.Cl [(+)-Pilocarpine hydrochloride],inactive: 3.21
9,"CN(C)CCOc1ccc(/C(=C(/CCCl)c2ccccc2)c2ccccc2)cc1.O=C(O)CC(O)(CC(=O)O)C(=O)O [Toremifene Citrate (Fareston, Acapodene)]",inactive: 0.136
10,CCOc1cccc(C(=O)c2ccc(O)c(O)c2O)c1,inactive: 4.09
11,CCCCC/C=C/CCC(=O)N[C@H]1[C@H](Oc2c3cc4cc2Oc2ccc(cc2Cl)[C@@H](O[C@@H]2O[C@H](CO)[C@@H](O)[C@H](O)[C@H]2NC(C)=O)[C@@H]2NC(=O)[C@H](NC(=O)[C@@H]4NC(=O)[C@H]4NC(=O)C(Cc5ccc(c(Cl)c5)O3)NC(=O)[C@H](N)c3ccc(O)c(c3)Oc3cc(O)cc4c3)c3ccc(O)c(c3)-c3c(OC4O[C@H](CO)[C@@H](O)[C@H](O)[C@@H]4O)cc(O)cc3[C@@H](C(=O)O)NC2=O)O[C@H](CO)[C@@H](O)[C@@H]1O (some centres undefined) [TEICOPLANIN [A(2-1) shown]],inactive: 0.765
12,"CC(=O)[C@H]1CC[C@H]2[C@@H]3CCC4C[C@H](O)CC[C@]4(C)[C@H]3C[C@H](O)[C@]12C (stereo partly drawn) [3alpha,12alpha-DIHYDROXY-PREGNAN-20-ONE]",inactive: 2.58
13,CCOC(=O)[C@H](CCc1ccccc1)N[C@@H](C)C(=O)N1[C@H](C(=O)O)C[C@@H]2CCC[C@@H]21 [Ramipril],inactive: 1.17
14,CC(=O)O[C@]1(C(C)=O)CCC2C3C=C(Cl)C4=CC(=O)CC[C@]4(C)C3CC[C@@]21C (some centres undefined),inactive: 1.69
15,CC(=O)O[C@H]1CC[C@@]2(C)C(=CC[C@@H]3[C@@H]2CC[C@]2(C)C(=O)CC[C@@H]32)C1 [Dehydroepiandrosterone acetate],inactive: 3.22
16,O=C(C1CCCCC1)N1CC(=O)N2CCc3ccccc3C2C1 (centres undefined) [Praziquantel],inactive: 3.31
17,CCN(CC)CCNC(=O)c1c(C)[nH]c(/C=C2\C(=O)Nc3ccc(F)cc32)c1C.O=C(O)C[C@H](O)C(=O)O [Sunitinib],inactive: 1.43
18,CCOC(=O)C(C)(C)Oc1ccc(Cl)cc1 [Clofibrate],inactive: 3.84
19,c1ccc2c(c1)Nc1ccccc1S2,inactive: -1.82
20,C[C@]12C=CC(=O)C=C1CCC1C2C(=O)C[C@@]2(C)C1CC[C@]2(O)C(=O)CO (some centres undefined),inactive: 1.61
21,CN1CCN(c2nc(C3=C(c4c[nH]c5ccccc45)C(=O)NC3=O)c3ccccc3n2)CC1 [Sotrastaurin (AEB071)],inactive: 1.92
22,O=C(Oc1ccccc1C(=O)O)c1ccccc1O,inactive: 0.578

row,SMILES,cell-cell fusion (z-score)
1,CS(=O)(=O)O.Oc1ccc2c3c1O[C@H]1c4oc5ccccc5c4C[C@@]4(O)C(C2)N(CC2CC2)CCC314 (some centres undefined) [Naltriben methanesulfonate],inactive: 3.48
2,CCC(C)C(N)C1=NC(C(=O)NC(CC(C)C)C(=O)NC(CCC(=O)O)C(=O)NC(C(=O)NCCCCC2NC(=O)C(CC(N)=O)NC(=O)C(CC(=O)O)NC(=O)C(Cc3c[nH]cn3)NC(=O)C(Cc3ccccc3)NC(=O)C(C(C)CC)NC(=O)C(CCCN)NC2=O)C(C)CC)CS1 (centres undefined),inactive: 0.919
3,Cc1ccc(NC(=O)c2cccc(C(C)(C)C#N)c2)cc1Nc1ccc2ncn(C)c(=O)c2c1,inactive: 1.24 and inactive: 1.61
4,CCc1ccc(CCOc2ccc(CC3SC(=O)NC3=O)cc2)nc1.Cl (centres undefined) [Pioglitazone hydrochloride],inactive: 0.829
5,Br.C#CCOC(=O)C1=CCCN(C)C1 [Arecaidine propargyl ester hydrobromide],inactive: 2.32
6,Cc1ccc(S(=O)(=O)NC(=O)NN2CC3CCCC3C2)cc1 (centres undefined),inactive: 1.69
7,"CC1=CC(=O)CC(C)(C)C1(O)/C=C/C(C)=C\C(=O)O (mixture of isomers) [ABSCISIC ACID (cis,trans; +/-)]",inactive: 2.43
8,COc1ccccc1N1CCNCC1.Cl,inactive: 4.3
9,Clc1ccc(C(Cn2ccnc2)OCc2ccsc2Cl)c(Cl)c1 (centres undefined),inactive: -0.886
10,N=C(N)NOCC[C@H](N)C(=O)O [L-Canavanine],inactive: 3.23
11,O=C(CCCN1CCC(O)(c2ccc(Cl)cc2)CC1)c1ccc(F)cc1 [Haloperidol],inactive: 4.44
12,CC(/C=C/c1cccc(Oc2ccc(F)cc2)c1)N(O)C(N)=O (centres undefined),inactive: 1.83
13,Cc1cc(CCC[C@H](CC(=O)NO)C(=O)N[C@H](C(=O)N[C@H](C)c2ccccc2)C(C)(C)C)ccc1-c1ccccc1,active: -18.4
14,Cc1ncc(CO)c(CO)c1O,inactive: 1.17
15,C[C@]12C=CC(=O)C=C1CCC1C2[C@@H](O)C[C@@]2(C)C1CC[C@]2(O)C(=O)COP(=O)([O-])[O-].[Na+].[Na+] (some centres undefined),inactive: 1.51
16,CC(=O)NC(Cc1ccccc1)C(=O)O (centres undefined),inactive: 3.96
17,CCN[C@@H]1C[C@H](C)S(=O)(=O)c2sc(S(N)(=O)=O)cc21.Cl [Dorzolamide HCL],inactive: 1.31
18,CC(C)[N+](C)(CCOC(=O)C1c2ccccc2Oc2ccccc21)C(C)C.[Br-] [Propantheline bromide],inactive: 2.14
19,CC(C)(C)c1cc(/C=C(\C#N)C(N)=S)cc(C(C)(C)C)c1O [Tyrphostin AG 879],inactive: 2.7
20,O=C1O[C@H]([C@@H](O)CO)C(O)=C1O [L(+)-Ascorbic acid],inactive: 4.34
21,COc1cccc([C@]2(O)CCCC[C@H]2CN(C)C)c1.Cl,inactive: 3.87
22,Clc1ccc(CSC(Cn2ccnc2)c2ccc(Cl)cc2Cl)cc1.O=[N+]([O-])O (centres undefined) [Sulconazole Nitrate],inactive: -2.07

row,SMILES,cell-cell fusion (z-score)
1,Cl.NC[C@@H]1O[C@H](c2ccccc2)Cc2c1ccc(O)c2O,inactive: -0.688
2,COc1ccc(CN(CCN(C)C)c2ccccn2)cc1.O=C(O)/C=C\C(=O)O,inactive: 1.95
3,COc1ccc(CN(CCN(C)C)c2ccccn2)cc1.O=C(O)/C=C\C(=O)O [Pyrilamine maleate],inactive: 2.09
4,NS(=O)(=O)c1cc2c(cc1C(F)(F)F)NC(Cc1ccccc1)NS2(=O)=O (centres undefined) [Bendroflumethiazide],inactive: 1.7
5,CC1(C)S[C@@H]2[C@H](NC(=O)[C@H](N)c3ccc(O)cc3)C(=O)N2[C@H]1C(=O)O [Amoxicillin],inactive: 1.79
6,O=C(CCCN1CC=C(n2c(=O)[nH]c3ccccc32)CC1)c1ccc(F)cc1,inactive: -1.45
7,COC(=O)c1ccc(O)c(NC(=O)COc2ccc(C34CC5CC(CC(C5)C3)C4)cc2)c1 [Hypoxia Inducible Factor-1α Inhibitor],inactive: 0.989
8,NC(Cc1ccc(Cl)cc1)C(=O)O (racemic) [(±)-p-Chlorophenylalanine],inactive: 1.76
9,CN(C)C(=O)C(CCN1CCC(O)(c2ccc(Cl)cc2)CC1)(c1ccccc1)c1ccccc1.Cl [Loperamide hydrochloride],inactive: 0.0728
10,O=C1c2ccccc2C(=O)C1c1ccc(Cl)cc1,inactive: 2.14
11,C[N+](C)(C)CCCCCC[N+](C)(C)C.[Br-].[Br-] [Hexamethonium bromide],inactive: 3.97
12,C[N+](C)(C)CCCCCC[N+](C)(C)C.[Br-].[Br-],inactive: 2.98
13,CN1CCc2cc(NC(=O)Nc3cccnc3)ccc21.Cl,inactive: 2.54
14,CC(C)(C)c1ccc(/C=C/C(=O)Nc2ccc3c(c2)OCCO3)cc1,active: -17
15,CC(C)C[C@H](NC(=O)C1OC1C(=O)O)C(=O)NCCCCNC(=N)N (some centres undefined),inactive: 1.52
16,Clc1ccc(COC(Cn2ccnc2)c2ccc(Cl)cc2Cl)c(Cl)c1.O=[N+]([O-])O (centres undefined) [Miconazole nitrate],active: -3.2
17,CC(C)NC(=N)NC(=N)Nc1ccc(Cl)cc1.Cl [Proguanil hydrochloride],inactive: 1.74
18,CC(C)c1ccc2oc3nc(N)c(C(=O)O)cc3c(=O)c2c1,inactive: 2.21
19,C[C@H](CCC(=O)NCCS(=O)(=O)O)[C@H]1CC[C@H]2[C@@H]3[C@@H](O)C[C@@H]4C[C@H](O)CC[C@]4(C)[C@H]3CC[C@]12C [Tauroursodeoxycholic Acid],inactive: 0.888
20,CCN1CCc2nc(N)oc2CC1.Cl.Cl [B-HT 933 dihydrochloride],inactive: 2.72
